Reference: paper PMC11914300
For some of these results: Weaker means in comparison with the reference protein, sequence or condition of that experiment. For some of these results: For at least one entry, the source does not settle the construct or the ends of the probe. For some of these results: At least one verdict was read from the data and is not stated in words by the source.

Protein sequences, listed by entry. Tags and fused reporters are not part of them.
UniProt P07910, whole entry S115D: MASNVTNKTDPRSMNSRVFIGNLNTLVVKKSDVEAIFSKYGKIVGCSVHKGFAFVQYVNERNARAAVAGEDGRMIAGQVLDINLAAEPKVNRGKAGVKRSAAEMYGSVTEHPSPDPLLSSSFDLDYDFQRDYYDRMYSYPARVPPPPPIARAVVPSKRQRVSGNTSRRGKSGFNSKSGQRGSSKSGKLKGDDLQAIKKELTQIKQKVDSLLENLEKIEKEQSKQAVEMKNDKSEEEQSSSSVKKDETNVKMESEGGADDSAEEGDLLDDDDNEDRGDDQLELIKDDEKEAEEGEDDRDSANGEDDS

Columns and labels:
hnRNPC2 S115D = hnRNPC2 S115D (UniProt P07910); assay: EMSA; conditions: 10 pmol RNA, EMSA: 20 mM Tris-HCl pH 8.0, 0.25 M NaCl, 1 mM DTT, 10% glycerol, 0.2 mM EDTA, 37 C, 20 min, 5% polyacrylamide gel, recombinant protein, residues 1-306, label: 5' 32P
hnRNPC2 WT = hnRNPC2 WT (UniProt P07910); assay: EMSA; conditions: 0, 2, 5, 10 uM protein, 10 pmol RNA; EMSA: 20 mM Tris-HCl pH 8.0, 0.25 M NaCl, 1 mM DTT, 10% glycerol, 0.2 mM EDTA; 37 C, 20 min; 5% polyacrylamide gel; recombinant protein; residues 1-306; label: 5' 32P
[1] = 0-10 uM protein, strongly reduced vs WT

| Sequence | binding result (hnRNPC2 S115D; 0, 2, 5, 10 uM protein, reduced vs WT) | binding result (hnRNPC2 WT) | binding result (hnRNPC2 S115D; [1]) |
| --- | --- | --- | --- |
| ACUCCUGCCUCUCUACUUCUGUGGCCCCAG [TRAF4 intron 5 3' splice site RNA] | binds more weakly | binds | – |
| AUCUCUUGGCUAUCCCUCUUGCUUCUCCAG [eIF5A intron 5 3' splice site RNA] | – | – | binds more weakly |
| ACCCCCUGCACACUUACCCAAUCCUUUUAG [RPL10 intron 6 3' splice site RNA] | – | – | binds more weakly |
